Experiment [1] deals with T1, Flag-EPN3 (full-length human Epsin 3 overexpressed in MCF10A cells) (human) (UniProt Q9H201).
T1 sequence: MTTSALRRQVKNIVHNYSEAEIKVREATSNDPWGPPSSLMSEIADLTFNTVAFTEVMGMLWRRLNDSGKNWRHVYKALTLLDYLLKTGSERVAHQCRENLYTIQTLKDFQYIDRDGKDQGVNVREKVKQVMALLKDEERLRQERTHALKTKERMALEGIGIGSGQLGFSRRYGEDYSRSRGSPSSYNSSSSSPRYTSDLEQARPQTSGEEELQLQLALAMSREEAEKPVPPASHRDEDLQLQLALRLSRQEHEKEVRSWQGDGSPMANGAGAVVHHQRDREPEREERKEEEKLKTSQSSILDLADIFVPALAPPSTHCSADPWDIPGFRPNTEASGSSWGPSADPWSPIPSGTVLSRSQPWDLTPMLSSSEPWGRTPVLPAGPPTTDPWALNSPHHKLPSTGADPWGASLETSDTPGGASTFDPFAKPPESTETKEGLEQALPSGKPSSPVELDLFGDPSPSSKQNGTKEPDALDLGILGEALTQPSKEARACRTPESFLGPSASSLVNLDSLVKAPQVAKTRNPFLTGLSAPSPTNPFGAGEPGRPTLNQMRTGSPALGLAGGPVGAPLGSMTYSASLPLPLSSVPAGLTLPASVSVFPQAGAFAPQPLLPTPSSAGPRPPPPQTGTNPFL
Nature of the experiment: co-IP; MCF10A-Ctr and MCF10A-EPN3 cells, EGF starved overnight, cross-linked with 1% formaldehyde for 10 min at RT, lysed in RIPA buffer and sonicated; 1 mg lysate, IP with anti-EPN3 rabbit polyclonal Ab (or control IgG) and Protein G, 4 washes in RIPA; immunoblot of partners. Background: In western blotting, separated proteins are transferred to a membrane and probed.

Experiment [2] addresses T2, Epsin 3 (EPN3), endogenous in MCF10A-Ctr cells (human (endogenous in MCF10A)) (UniProt Q9H201).
T2 sequence: T1 sequence
The experiment is described as above.

The target of experiment [3] is T3, EPN3 as it stood in the in situ proximity ligation assay (human) (UniProt Q9H201).
T3 sequence: T1 sequence
Kind of experiment: proximity ligation; in situ Duolink PLA (O-link Bioscience, Detection Reagents Orange) for ECAD and EPN3 in cells, with or without TGFβ treatment.

These are yes or no findings as the source states them, for the method shown. In cells and extracts the contact can be indirect. Binding calls can cover weak binding; strength is not graded here. For some assays here: Where a sequence is shown, tags or fusion partners need not be part of it.

As for clathrin (human (endogenous in MCF10A)), the binding entry in experiment [1] and in experiment [2] was “binds” each time.
On to “E-cadherin (ECAD) (human (endogenous in MCF10A))”, for which the binding entry in experiment [1], in experiment [2] and in experiment [3] was “binds” throughout.

For the origin of these results see article PMC7296024.
